These are yes or no findings as the source states them, for the method shown. Some results given as binding are weak or reduced against the parent protein; the word gives no strength.
Biological target: cynomolgus CD40-His protein (cynomolgus) (UniProt G7PG38)
Assay: ELISA, coated cynomolgus CD40-His

The chains behind the UniProt entries cited, without tags or fusion partners. Where a name states a change or a piece, a line headed by the entry shows the natural chain unless it says otherwise. A line that says so, or that is headed by a name, gives the form on record, which may keep a tag or linker.
cynomolgus CD40-His protein (G7PG38, form named): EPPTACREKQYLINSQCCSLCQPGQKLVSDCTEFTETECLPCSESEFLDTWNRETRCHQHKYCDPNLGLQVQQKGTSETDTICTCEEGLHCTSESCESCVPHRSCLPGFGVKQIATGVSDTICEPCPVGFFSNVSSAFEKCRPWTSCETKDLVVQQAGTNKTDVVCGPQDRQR

| Binder | binding |
| --- | --- |
| 42p155 chimeric monospecific antibody (antibody, V domains shown) VH: PSQLVESGGGLVQPGGSLRLSCAASGFAFRSYTMSWVRQAPGKGLEWVSTITHNGAITTYAESAQGRFTISRDNAKNTLYLQMNSLKPEDTAVYYCAQGGGSNYYRESWGQGTQVTVSS | binds |
| 2p834 chimeric monospecific antibody (antibody, V domains shown) VH: QSQLVESGGGLVQPGGSLRLSCAASGFAFRRYTMSWVRQAPGKGLEWVSTITHNGSITTYAESAQGRFTISRDNAKNTLYLQMNSLKPEDTAVYYCAQGGGSNYYRESWGQGTQVTVSS | binds |
| 2p931 chimeric monospecific antibody (antibody, V domains shown) VH: AVQLVESGGGLVQPGGSLRLSCAASGFSFRNYMMNWVRQAPGKGLECLSSITSAGDITSYTESVKGRFTISRDNAKNTLYLQMNSLKPEDTAVYYCAQGGCGNYYRESWGQGTQVTVSS | binds |
| 42p655 chimeric monospecific antibody (antibody, V domains shown) VH: AVQLVESGGGLVQPGGSLRLSCAASGFAFRRYTMSWVRQAPGKGLEWVSSITDNGSITTYAESAQGRFTISRDNAKNTLYLQMNSLKPEDTAVYHCAQGGGSNYYRESWGQGTQVTVSS | binds |
| 2p1294 chimeric monospecific antibody (antibody, V domains shown) VH: QVQLVESGGGLVQPGGSLRLSCAASGFSFRRYTMSWVRQAPGKGLEWVSAISDNGAITTYTESAQGRFTISRDNAKNTLYLQMNSLKPEDTAVYYCAQGGGSNYYRESWGQGTQVTVSS | binds |
| 2p957 chimeric monospecific antibody (antibody, V domains shown) VH: PVQLVESGGGLVQPGGSLRLSCAASGFSFRNYIMSWVRQAPGKGLEWLSSITNSGGITSYTESVKGRFTISRDNAKNTLYLQMNSLKPEDTAVYYCAQGGSDNYYRGSWGQGTQVTVSS | binds |
| 42p495 chimeric monospecific antibody (antibody, V domains shown) VH: PVQLVESGGNLVQPGGSLRLSCVAPGFTSRNSAMSWVRQAPGKGLEWVSTIYSGKSNTDYADSVKGRFTISTDNAKNTLYLHMNKLKSEDTAVYYCAKGAASDWYVPRDYWGQGTQVTVSS | binds |
| 3p78 chimeric monospecific antibody (antibody, V domains shown) VH: PVQLVESGGGLVQPGGSLRLSCAASGFTFRNYAMSWVRQAPGKGLEWVSTITHNGAITTYAESAQGRFTISRDNAKNTLYLQMNSLKPEDTAVYYCAQGGGSNYYRESWGQGTQVTVSS | binds |
| 2p415 chimeric monospecific antibody (antibody, V domains shown) VH: QLHFVESGGGLVQPGGSLRLSCAASGFTLDHYAMGWFRQAPGKEREGVSCISGGGSTRYADSAKGRFTISRDNAKNTVYLQMNSLTPEDTAVYYCAAARLLSRNCVPRDSGSWGQGTQVTVSS | binds |
| 2p442 chimeric monospecific antibody (antibody, V domains shown) VH: QVQLVESGGGLVQPGGSLRLSCVASGFTLDYFAIGWFRQAPGKEREGVSCISGGGSTRYADSVKGRFTISRDNAKNTVYLQMNSLTPEDTAVYYCAAARLLSRNCVPRDSGSWGQGTQVTVSS | binds |
| 2p551 chimeric monospecific antibody (antibody, V domains shown) VH: QLHFVESGGGLVQPGGSLRLSCAASGFTLDYYAIGWFRQAPGKEREGVSCISGGGSTRYADSVKGRFTISRDNAKNTVYLQMNSLTPEDTAVYYCAAARLLSTNCVPRDSGSWGQGTQVTVSS | binds |
| 2p80 chimeric monospecific antibody (antibody, V domains shown) VH: QLQLVESGGGLVQAGGSLRLSCAASGRIFSSYAMSWFRQAPGKEREFVATIGWIGENTYYADSVKGRFTISRDNAKNTLYLQMNSLKPEDTAVYYCAAGLPANRYYDYWGQGTQVTVSS | binds |
| 2p1130 chimeric monospecific antibody (antibody, V domains shown) VH: EVQVVESGGGLVQPGGSLRLTCAASGFSVDDYGIGWFRQAPGREREGVACITPNGLMMNFANTVGSVAGRFSASRDSGENTVSLQMSSLKPEDTAIYFCAHSRDDSCRGSLSDYDDWGQGTQVTVSS | binds |

From US20240209109A1
